From patent US10801879B2, “Magnesium zinc oxide nanostructure modified biosensor and monitoring of response of cell population to an agent using the same” (Rutgers, The State University of New Jersey, priority 2015, dated 2020) come the findings set out here.

For the test, the system named is P. aeruginosa. As to the kind of experiment: Standard broth dilution assay (MIC), P. aeruginosa. Conditions: Pseudomonas aeruginosa. Format: cell-based. The protocol: The sensor was placed inside an incubator at 37° C. while automatically measuring the acoustic spectrum every 15 minutes for 3 hours.
(Broth dilution looks for growth in wells or tubes with falling amounts of substance.)

Molecules are shown by their SMILES. ≈ marks a conversion by molar mass, not a printed value.

With `O=C(O)c1cn(C2CC2)c2cc(N3CCNCC3)c(F)cc2c1=O` [ciprofloxacin], the MIC stood at 0.08 µg/mL (≈ 0.241 µM).

Broadly, the MIC is the lowest concentration found to suppress growth. Higher therefore signals weaker potency.
